# Assay results: PubChem BioAssay AID445 (National Center for Advancing Translational Sciences (NCATS), 2006)
# This is one part of the list. The main result of the screen is listed elsewhere. These columns were measured beside it and carry no call. Compounds called inactive in the main read-out are mostly missing here. The note in brackets gives the kind of curve behind each potency; many fits are weak.
# Test: IkB Signaling
# Details: ABC-DLBCL IkBa-CBG/CBR dual luciferase ratio (green luciferase fused to IkBa over red control in OCI-Ly3 lymphoma cells), 4 h
# Method in brief: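 In this assay, an IκBα–CBG68 fusion accumulates when IKK-driven degradation is blocked; native CBR normalizes for cell number. OCI-Ly3 cells were treated 4 h with compound and doxycycline, then green and red light read after Chroma-Glo addition.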
# [1] = measured here: control luc red channel unless noted
# [2] = measured here: IkB-luc green channel
# [3] = measured here: control luc red channel
smiles,measurement,setting,value
Cc1c2c(n3c(nc4ccccc43)c1C#N)N(Cc1ccccn1)CC2,AC50,[1],"12.6 µM [falling, partial curve]"
CCOCCc1nn2c(=O)cc(COC(=O)c3ccccc3NC(=O)c3cccs3)nc2s1,AC50,[1],"1.26 µM [rising, full curve, poor fit]"
COc1ccc(N2CCN(C(=O)c3c(C)nn(-c4ccc(F)cc4)c3-n3cccc3)CC2)cc1,AC50,[1],"12.6 µM [falling, partial curve]"
O=C(C1CCCN(S(=O)(=O)c2cccs2)C1)N1CCN(c2ccccc2F)CC1 (stereo not drawn),AC50,[1],"25.1 µM [falling, partial curve]"
Cc1ccc(CN(Cc2cccn2-c2nnc(N3CCCC3=O)s2)C(=O)Nc2cc(C)cc(C)c2)cc1,AC50,[1],"12.6 µM [falling, partial curve, poor fit]"
COc1ccc(-c2nc3c(c(SCC(=O)Nc4cc(C)cc(C)c4)n2)Cc2c(CO)cnc(C)c2O3)cc1,AC50,[1],"0.158 µM [rising, full curve, poor fit]"
C[C@@H]1C[C@@H]2[C@H]3CCC4=CC(=O)C=C[C@]4(C)[C@]3(Cl)[C@@H](O)C[C@@]2(C)[C@@]1(O)C(=O)CO,AC50,[1],"7.94 nM [rising, full curve] [measured here: IkB-luc green channel]"
COc1ccc(-c2cc(-n3c(C(F)(F)F)nc4ccccc43)n(CCC#N)n2)cc1,AC50,[1],"15.8 µM [falling, partial curve]"
CCOc1ccc(-n2c(-c3ccc(OC)cc3)cc3c2CC(C)(C)CC3=O)cc1,AC50,[1],"15.8 µM [falling, partial curve]"
CCOc1ccc(NCc2cccn2-c2nnc(N3CCC(C(=O)NC(C)c4ccccc4)CC3)s2)cc1 (stereo not drawn),AC50,[1],"39.8 µM [falling, single point]"
CC1CCc2c(sc3nnn(CC(=O)Nc4cccc(C(F)(F)F)c4)c(=O)c23)C1 (stereo not drawn),AC50,[1],"15.8 µM [falling, partial curve]"
COc1ccc(CNC(=O)c2cc(-c3ccccc3OC)on2)cc1,AC50,[1],"5.01 µM [falling, partial curve]"
Cn1nnc2cc(C(=O)NCCC3=CCCCC3)ccc21,AC50,[1],"0.501 µM [rising, full curve]"
CCN1C(C(=O)c2ccccc2)=C(OC(=O)c2ccc(Cl)cc2)c2ccccc2S1(=O)=O,AC50,[1],"12.6 µM [falling, partial curve]"
CCc1ccc2oc(-c3cccc(NC(=O)c4ccc(-c5cccc([N+](=O)[O-])c5)o4)c3)nc2c1,AC50,[1],"1.58 µM [falling, full curve]"
Cc1cccc(OC(C)C(=O)N2CCC(c3nc4ccccc4o3)CC2)c1C (stereo not drawn),AC50,[1],"12.6 µM [falling, partial curve]"
CCOC(=O)c1cccc(NC(=O)N2Cc3ccccc3Oc3ncccc32)c1,AC50,[1],"25.1 µM [falling, single point]"
CCOc1cccc(NC(=O)CSc2ncc(-c3ccc(Cl)cc3)[nH]2)c1,AC50,[1],"7.94 µM [falling, partial curve]"
Cc1ccc(OCCSc2nc3ccccc3n2CCC(=O)O)cc1C,AC50,[1],"12.6 µM [falling, partial curve]"
CCN1CCN(C(c2ccc(Cl)cc2)c2c(O)cc(C)n(CCOC)c2=O)CC1 (stereo not drawn),AC50,[1],"39.8 µM [falling, single point]"
COc1ccccc1-c1nnc(SC/C(O)=C(\C#N)c2nc3ccccc3[nH]2)n1C1CCCCC1,AC50,[1],"0.631 µM [falling, full curve]"
CCCCn1cnc2cc(NC(=O)c3cc(OC)c(OC)c(OC)c3)ccc21,AC50,[1],"15.8 µM [falling, single point]"
Cc1cc(C)cc(N(CC(=O)Nc2ccc(C(F)(F)F)cc2)S(=O)(=O)c2c(C)[nH]c(=O)[nH]c2=O)c1,AC50,[1],"15.8 µM [falling, partial curve]"
Cn1c(NCc2ccccc2F)nc2ccccc21,AC50,[1],"39.8 µM [falling, single point]"
N=c1n(CCO)c2ccccc2n1CCOc1ccc(F)cc1,AC50,[1],"20 µM [falling, partial curve, poor fit]"
Cc1cccc(C)c1NC(=O)C1CCN(S(=O)(=O)c2cccc3nsnc23)CC1,AC50,[1],"0.00631 µM [falling, full curve, poor fit]"
CCOC(=O)C1CCN(C(=O)c2ccc3c(c2)sc2nc(-c4ccc(OCC)cc4)cn23)CC1,AC50,[1],"15.8 µM [falling, partial curve]"
COc1ccc(-c2nc(SCC(=O)NC3CCCC3)c(-c3ccccc3)[nH]2)cc1OC,AC50,[1],"39.8 µM [falling, single point]"
CC(=O)c1cccc(-n2c(CCC(=O)O)ccc2-c2ccccc2)c1,AC50,[1],"15.8 µM [falling, single point]"
CCOc1ccccc1C(=O)N1CCc2cc(OC)c(OC)cc2C1COc1ccc2c(C)cc(=O)oc2c1 (stereo not drawn),AC50,[1],"25.1 µM [falling, partial curve]"
Cc1ccc(-n2ncc3c(Nc4ccc5c(c4)OCCO5)ncnc32)cc1C,AC50,[1],"6.31 µM [falling, partial curve]"
CCCc1nnc(NC(=O)Cc2coc3cc(C)cc(C)c23)s1,AC50,[1],"7.94 µM [rising, single point]"
O=C(CSc1nnc(CNC(=O)c2cccs2)o1)c1ccc(Cl)cc1,AC50,[1],"10 µM [falling, partial curve]"
CCOC(=O)C1=C(c2ccccc2)NC(SCC(=O)Nc2ccc(C)cc2)=C(C#N)C1c1ccco1 (stereo not drawn),AC50,[1],"3.16 µM [falling, full curve, poor fit]"
CCOc1ccc(Nc2nc3ccccc3n3c(CC)nnc23)cc1,AC50,[1],"39.8 µM [falling, single point]"
O=C(Nc1ccc(Br)cc1)C1CCN(S(=O)(=O)c2cccc3nsnc23)CC1,AC50,[1],"12.6 µM [rising, partial curve]"
O=C(NCC(c1ccco1)S(=O)(=O)c1ccc(Cl)cc1)c1ccccc1F (stereo not drawn),AC50,[1],"39.8 µM [falling, single point]"
COc1ccc(-c2nn3c(=O)cc(CN4CCN(C(=O)Nc5ccc(C)c(Cl)c5)CC4)nc3s2)cc1,AC50,[1],"0.126 µM [falling, full curve, poor fit]"
Nn1c(COc2cccc(Br)c2)nnc1SCC(=O)N1CCc2ccccc2C1,AC50,[1],"15.8 µM [falling, partial curve]"
Nc1c(-c2nc(-c3ccc(Cl)cc3)cs2)c2ccccn2c1C(=O)c1ccc2c(c1)OCO2,AC50,[1],"5.01 µM [falling, partial curve]"
COCCCNC(=O)c1cc2c(=O)n3cccc(C)c3nc2s1,AC50,[1],"0.2 µM [rising, full curve, poor fit]"
CCCCc1nc2ccccc2n2c(-c3ccc(C)cc3)c3c(=O)n(C)c(=O)n(C)c3c12,AC50,[1],"39.8 µM [falling, single point]"
CSc1cccc(NC(=O)CN(c2ccccc2)S(=O)(=O)N(C)C)c1,AC50,[1],"31.6 µM [falling, single point]"
CC1CCN(S(=O)(=O)c2ccc3c(c2)N(CC(=O)NC(C)c2ccccc2)C(=O)CO3)CC1 (stereo not drawn),AC50,[1],"15.8 µM [falling, partial curve]"
Cc1cc(N2CCCCC2)nc2ccc(NC(=O)c3cccc(F)c3)cc12,AC50,[1],"31.6 µM [falling, single point]"
Cc1nc(N2CCCC2)c2c(C(=O)N3CCN(c4cccc(Cl)c4)CC3)c(C)oc2n1,AC50,[1],"25.1 µM [falling, partial curve]"
C=Cc1ccc(CSc2nc(-c3ccccc3Cl)nc3c2Cc2c(CO)cnc(C)c2O3)cc1,AC50,[1],"3.16 µM [falling, single point]"
O=c1cnc2cnc(Nc3ccccc3)nc2n1C[C@H]1CCCO1,AC50,[2],"2 µM [falling, partial curve]"
same,AC50,[3],"2.51 µM [falling, partial curve]"
CCN(c1ccccc1)c1nnc(NC(=O)Nc2cccc(Br)c2)s1,AC50,[1],"12.6 µM [falling, partial curve]"
O=C1CC(c2nc3ccccc3n2CCCOc2ccccc2)CN1c1ccc(F)cc1 (stereo not drawn),AC50,[1],"25.1 µM [falling, single point]"
COCCCNC(=O)CSc1c2c(nc3ccc(Cl)cc13)CCCC2,AC50,[2],"25.1 µM [rising, partial curve]"
same,AC50,[3],"10 µM [falling, partial curve]"
CC(=O)C1=C(C)NC(SCC(=O)c2cc(Cl)ccc2Cl)=C(C#N)C1c1ccco1 (stereo not drawn),AC50,[1],"10 µM [falling, partial curve]"
CCN(c1ccc(OC)cc1)S(=O)(=O)c1nnc(NC(=O)c2ccccc2Cl)s1,AC50,[1],"12.6 µM [falling, partial curve]"
Cc1ccc(CNC(=O)c2ccc(CSCc3ccc(C)cc3)o2)cc1,AC50,[1],"25.1 µM [falling, single point]"
CCCCn1c(NCc2ccccc2O)nc2ccccc21,AC50,[1],"15.8 µM [falling, partial curve]"
Cc1ccc(NS(=O)(=O)c2ccc3[nH]c4c(c3c2)CCCCCC4)cc1Cl,AC50,[1],"31.6 µM [falling, single point]"
CCOC(=O)c1sc(NC(=O)c2cc(CC)on2)c(C(=O)OCC)c1C,AC50,[1],"39.8 µM [falling, single point]"
CCCOC(=O)c1ccc(NC(=O)Cc2csc(C)n2)cc1,AC50,[1],"1.58 µM [rising, partial curve]"
CCC(=O)N1CCc2cc(Br)cc(S(=O)(=O)NCc3ccc(Cl)cc3)c21,AC50,[1],"15.8 µM [falling, partial curve]"
O=C1c2ccccc2C(=O)N1CCc1nc(-c2ccccn2)no1,AC50,[1],"7.94 µM [falling, partial curve]"
CC(O)CNc1nc2ccccc2n1-c1ncnc2sc3c(c12)CCC3 (stereo not drawn),AC50,[1],"25.1 µM [falling, partial curve]"

# Rewritten with bars between the fields: part of the list above
smiles | measurement | setting | value
CCCCn1cnc2cc(NC(=O)c3cc(OC)c(OC)c(OC)c3)ccc21 | AC50 | [1] | 15.8 µM [falling, single point]
Cc1cc(C)cc(N(CC(=O)Nc2ccc(C(F)(F)F)cc2)S(=O)(=O)c2c(C)[nH]c(=O)[nH]c2=O)c1 | AC50 | [1] | 15.8 µM [falling, partial curve]
Cn1c(NCc2ccccc2F)nc2ccccc21 | AC50 | [1] | 39.8 µM [falling, single point]
